Results published in article PMC8895955.
Results are given in words; binding and its absence hold for the method and conditions named. Binding seen in cells or lysates may run through a third protein. Some binding calls cover weakened binding; strength is not graded here.

Sequences of proteins named here, by UniProt entry; tags and fusion partners are left off. A change or cut given only in a name is not applied to a line headed by its entry.
UniProt Q04207: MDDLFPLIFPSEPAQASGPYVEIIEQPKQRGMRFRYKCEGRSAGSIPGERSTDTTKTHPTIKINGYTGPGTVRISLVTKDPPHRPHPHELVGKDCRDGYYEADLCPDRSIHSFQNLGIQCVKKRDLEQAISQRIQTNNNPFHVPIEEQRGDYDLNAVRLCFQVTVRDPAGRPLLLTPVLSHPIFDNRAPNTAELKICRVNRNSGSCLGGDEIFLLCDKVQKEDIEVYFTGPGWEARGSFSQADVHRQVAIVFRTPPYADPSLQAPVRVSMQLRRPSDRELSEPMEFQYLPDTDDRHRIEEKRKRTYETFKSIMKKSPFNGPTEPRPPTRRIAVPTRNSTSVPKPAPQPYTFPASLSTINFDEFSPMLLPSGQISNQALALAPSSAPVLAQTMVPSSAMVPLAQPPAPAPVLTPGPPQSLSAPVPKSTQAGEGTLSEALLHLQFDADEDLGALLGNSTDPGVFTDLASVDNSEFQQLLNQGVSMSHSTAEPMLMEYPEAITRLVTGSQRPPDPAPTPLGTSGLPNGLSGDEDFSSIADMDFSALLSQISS

Target: p65 (construct of Figure S10C) (mouse) (UniProt Q04207)
Test: co-IP; exogenous IP; HEK293T transfected with plasmids (PEI); IP buffer 50 mM Tris-HCl pH 7.4, 150 mM NaCl, 1% Triton X-100; anti-HA, anti-Flag or anti-Myc overnight, protein A/G agarose at 4°C; empty vectors or anti-IgG as control

B1: Kat8 (enzyme, UniProt Q9D1P2 1-458)
chain: MAAQGATAAVAATTSGTVGEGEPGPGENAAVEGPARSPGRVSPPTPARGEPEVTVEIGETYLCRRPDSTWHSAEVIQSRVNDQEGREEFYVHYVGFNRRLDEWVDKNRLALTKTVKDAVQKNSEKYLSELAEQPERKITRNQKRKHDEINHVQKTYAEMDPTTAALEKEHEAITKVKYVDKIHIGNYEIDAWYFSPFPEDYGKQPKLWLCEYCLKYMKFEKSYRFHLGQCQWRQPPGKEIYRKSNISVYEVDGKDHKIYCQNLCLLAKLFLDHKTLYFDVEPFVFYILTEVDRQGAHIVGYFSKEKESPDGNNVACILTLPPYQRRGYGKFLIAFSYELSKLESTVGSPEKPLSDLGKLSYRSYWSWVLLEILRDFRGTLSIKDLSQMTSITQNDIISTLQSLNMVKYWKGQHVICVTPKLVEEHLKSAQYKKPPITVDSVCLKWAPPKHKQVKLSKK
binding: binds
